Library screening results

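Viability assay of Plasmodium falciparum sporozoites; the read-out is not stated. The concentration is filed as 10 mM, unlikely as a test dose, so the dose is not known. The record gives no direction; compounds that gave an IC50 in retests scored well above the rest, so higher reads as lower viability. Strong results were mostly tested again. Of about 34,000 compounds tested this way, about 280 (0.84%) reached 50% or more in at least one test.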

Results are given as percent effect. How 0% and 100% were set is not recorded. Most values in the screen are low, and negative values occur. This is an unselected part of the compounds tested. Two or more numbers in one place are separate tests of the same structure; such repeats can differ widely.

{"structure": "CC(C)(C)C(O)CN1CCN(C(=O)c2cccc3ncccc23)CC1", "stereo": "centres undefined", "percent effect": 15.14}
{"structure": "Cc1ccc(C(NC(=O)Cc2nc3ncccn3n2)C2CC2)cc1", "stereo": "centres undefined", "percent effect": -23.47}
{"structure": "Cc1ccc(-c2noc(CN3CCOC(Cn4cccn4)C3)n2)cc1", "stereo": "centres undefined", "percent effect": -3.542}
{"structure": "CCc1nsc(N2CCCN(C(=O)c3ccsc3)CC2)n1", "percent effect": 14.38}
{"structure": "c1ccc(-n2cc(CNCC3CCCN3c3cccnn3)nn2)cc1", "stereo": "centres undefined", "percent effect": -7.81}
{"structure": "CN(C)S(=O)(=O)N1CCCCCC1c1cc(-c2ccc(F)cc2)no1", "stereo": "centres undefined", "percent effect": -6.224}
{"structure": "FC1(F)CCN(Cc2ccccn2)CC12CCN(c1ncccn1)C2.O=C(O)C(F)(F)F", "stereo": "centres undefined", "percent effect": 13.05}
{"structure": "CCn1nc2c(cc1=O)CN(Cc1ccc(-n3cccn3)cc1)CC2", "percent effect": -1.066}
{"structure": "Cc1ncsc1-c1nnc(C2CCN(Cc3ccccc3)CC2)o1", "percent effect": -0.5021}
{"structure": "COc1ccccc1C1CNC(=O)c2nc(-c3nccn3C)[nH]c2C1", "stereo": "centres undefined", "percent effect": 13.34}
{"structure": "O=S1(=O)N(c2ccccc2)C[C@H](O)[C@]12CCNC2", "percent effect": 6.986}
{"structure": "CCc1nc(C2CCCN(C(=O)c3cccnc3O)C2)no1", "stereo": "centres undefined", "percent effect": "0.8643 and 4.367 and 5.58"}
{"structure": "CC(Cn1cccn1)NCc1nc(-c2cccs2)no1", "stereo": "centres undefined", "percent effect": 5.949}
{"structure": "O=C(O)C(F)(F)F.c1cnc(N2CCC3(CCN(CC4CCOC4)CC3)C2)nc1", "stereo": "centres undefined", "percent effect": -25.62}
{"structure": "Cc1cncc(C2CCN(C(=O)c3ccc(-n4cccn4)nc3)CC2)n1", "percent effect": 2.061}
{"structure": "NC(=O)C1CCN(C(=O)CCSCc2ccc(Cl)c(Cl)c2)CC1", "percent effect": 2.47}
{"structure": "Cc1cnn(CC2CCCN2C(=O)c2cccnc2-n2cncn2)c1", "stereo": "centres undefined", "percent effect": 8.784}
{"structure": "Cc1nc(NCc2ccccc2)cc(C(C)Cn2nc(C)c(C)c2C)n1", "stereo": "centres undefined", "percent effect": 6.553}
{"structure": "COc1ccc(CN2CCCC(Nc3cccc(F)c3)C2)cc1O", "stereo": "centres undefined", "percent effect": 0.692}
{"structure": "[H][C@@]12CN(Cc3ccccn3)C[C@]1([H])OCCN2c1cccnc1", "percent effect": 8.754}
{"structure": "COCC(=O)NC1CC2(CCN(Cc3ccco3)CC2)c2ccccc21.O=C(O)C(F)(F)F", "stereo": "centres undefined", "percent effect": 0.4571}
{"structure": "O=C(Cc1c(F)cccc1F)N1CCN(CC(=O)N2CCCC2)CC1", "percent effect": 11.76}
{"structure": "CNC(=O)C1CN(C)CCN1c1nc(C)cc(C)n1", "stereo": "centres undefined", "percent effect": 1.963}
{"structure": "CC(C)c1nccn1-c1cccc(C2CCCN(C3CCCC3)C2)n1", "stereo": "centres undefined", "percent effect": 6.36}
{"structure": "CC1CCc2nc(O)c(C(=O)NCc3cccc(F)c3)cc2C1", "stereo": "centres undefined", "percent effect": -17.98}
{"structure": "O=C(O)C(F)(F)F.O=C(O)C(F)(F)F.[H][C@@]12CCCO[C@]1([H])[C@H](N(C)Cc1ccco1)CN2Cc1ccc(F)cc1", "percent effect": 8.767}
{"structure": "CCc1c(C)[nH]c(C(C)(N)CC)nc1=O.Cl", "stereo": "centres undefined", "percent effect": -2.176}
{"structure": "CC(C)c1ncc2c(n1)CN(Cc1ccc3c(c1)OCCO3)CC2", "percent effect": 16.32}
{"structure": "CC(C)N(CC(N)=O)Cc1csc(COc2ccc(F)cc2)n1", "percent effect": 9.951}
{"structure": "Oc1nc(-c2cnccn2)nc2c1CCN(Cc1ccccn1)C2", "percent effect": -7.262}
{"structure": "CSc1ccc(-c2nc(CN3CCC(C(N)=O)CC3)c(C)o2)cc1", "percent effect": "-5.503 and 3.94 and 12.4"}
{"structure": "CCOc1ccc2nc(CN3CCC(CN)C3)ccc2c1", "stereo": "centres undefined", "percent effect": "-7.906 and -16.55 and 46.77"}
{"structure": "Cc1ncc2c(n1)CCCC2NC(=O)c1ccncc1", "stereo": "centres undefined", "percent effect": -5.889}
{"structure": "Cc1cnn(CC2CCCCN2CC(=O)Nc2c(C)n[nH]c2C)c1", "stereo": "centres undefined", "percent effect": -4.535}
{"structure": "N#Cc1cccc(CN(CCO)Cc2ccsc2)c1", "percent effect": -2.997}

For reference, 3 entries once more:

| structure | percent effect |
|---|---|
| `Oc1nc(-c2cnccn2)nc2c1CCN(Cc1ccccn1)C2` | -7.262% |
| `O=C(Cc1c(F)cccc1F)N1CCN(CC(=O)N2CCCC2)CC1` | 11.76% |
| `Cc1cnn(CC2CCCCN2CC(=O)Nc2c(C)n[nH]c2C)c1` (centres undefined) | -4.535% |

Data taken from ChEMBL document CHEMBL3988442, “University of Dundee, Small-Polar-MMV Screening Library” (2021).